Measurements published in patent US12178838B2, “Synthetic neuromodulatory peptides” (Lactocore, Inc., priority 2019, dated 2024).
Where “and” joins values, the source holds several entries; their conditions need not be identical. Equal values may be shown once. Not every detail of the peptide structures is certain; ends, links or a residue may be inferred. Residues, ends and D or L forms follow the SMILES beside them.

Legend:
p-ERK1 (Thr202) = assay: Western blot of brain homogenates after CRS: p-ERK1; assay type: in vivo, rats; conditions: both doses of FQSE; after stress-induced 60% increase
[1] = tested on: Wistar rats after chronic unpredictable mild stress; assay: CUMS model: Elevated Plus Maze test; assay type: in vivo
Method: During stress, the animals were placed in individual cells and exposed to stressful conditions each day for 26 days. Two stressors were used daily, applied in the following order: • Day 1. 10 am-6 pm, rats were placed in a cold room for an hour. From 6 PM to 10 am the lights were turned on and off every 2 hours. • Day 2. 10 am-6 pm, cage tilted to 45°. From 6 PM to 10 am water deprivation. • Day 3. 10 am-6 pm, stroboscopic light. From 6 PM to 10 am the light was left on overnight. • Day 4. 10 am-6 pm, wet bedding. From 6 PM to 10 am the animals were put in a small mouse cage. • Day 5. 10 am-6 pm, no bedding. From 6 PM to 10 am the lights were turned on and off every 2 hours. • Day 6. 10 am-6 pm, a new rat was placed in the cage (6-month-old). From 6 PM to 10 am the light was left on overnight. • Day 7. 10 am-6 pm, white noise. From 6 PM to 10 am a stroboscopic light was turned on at night. • Day 8-26. Repetition of previously used stressors in the specified sequence. […]
The Elevated Plus Maze test was used to assess the level of anxiety, motor, and exploratory activity of laboratory animals. […] Within 5 minutes the number of exits to open arms and time spent in them, the number of transitions between arms, the time of rest, the duration and number of grooming acts, the number of stretch-attend postures into the open arms of the maze, and the number of rears were recorded. […]

p-p70S6k (Thr421/Ser424) = assay: Western blot of brain homogenates after CRS: p-p70S6k; assay type: in vivo, rats; conditions: both doses of FQSE
Method: (§1) To simulate a depressive state, experimental animals were placed in the individual restrainers (“Open Science”, Russia) for six hours daily for 14 days (hereinafter “chronic restraint stress=CRS”). […] The administration of drugs was carried out daily, 30 minutes before placing rats in the restrainers.
(§2) At the end of the behavioral examination, the rats were decapitated, and their brains extracted for subsequent western blot analysis. A total of 51 samples of homogenized brain tissue from Sprague-Dawley rats (3-4 months old) were received from the Customer. 25 samples were homogenates of the cerebral cortex, 26 samples were homogenates of the hippocampus isolated from rat brain. The amount of homogenized tissue in each sample was less than 50 mg. […] They were Incubated in ice for 30 minutes. Then the samples were centrifuged at 12000 g, 15 minutes, +4° C.
(§3) All the steps necessary for the analysis of protein levels of BDNF, p-p70S6k (Thr421/Ser424), p-ERK (one and two), (Thr202/Tyr204), p-GSK3β (Ser9), p-PKC (PKCG gamma Thr514) and the GAPDH reference protein were provided in the studied samples using Western blotting. […]
(§4) The integral areas of the spots obtained were calculated as a quantitative assessment and then normalized to the amount of protein in the sample.

BALB/C mice [2] = assay: Bicuculline model: Elevated Plus Maze test; assay type: in vivo
p-ERK 2 (Tyr204) = assay: Western blot of brain homogenates after CRS: p-ERK2; assay type: in vivo, rats
Method: as §1, §2, §3, §4

p-GSK3β (Ser9) = assay: Western blot of brain homogenates after CRS: p-GSK3β; assay type: in vivo, rats; conditions: fluoxetine; FQSE
Method: as §1, §2, §3, §4

TNFa = assay: LPS-induced neuroinflammation in primary glial cells: TNFa mRNA (qPCR); assay type: cell-based, murine
BDNF = assay: Western blot of brain homogenates after CRS: BDNF; assay type: in vivo, rats; conditions: both doses of FQSE (0.3 mg/kg and 3 mg/kg)
Method: as §1, §2, §3, §4

Il-1b = assay: LPS-induced neuroinflammation in primary glial cells: IL-1b mRNA (qPCR); assay type: cell-based, murine; conditions: wide range of doses
BALB/C mice [3] = assay: Marble Burying test in mice; assay type: in vivo; conditions: ip
Method: After an adaptation period, the test substance was intraperitoneally injected into mice. Behavioral parameters were measured in 30 minutes after injection. The tests were administered as follows: day 1—the Open field test, day 3—the Elevated plus maze test, day 5—the Marble burying test, days 12-13—the Porsolt swim (two-day modification) test.
In the marble burying test, the installation is a standard T3 cage (19 cm×29 cm×13 cm) filled with bedding material. The standard glass marbles (15 mm in diameter, weight 5.2 g, arbitrary color) were used for the test. Twenty marbles were evenly spaced on the surface in 4 rows, 5 pieces each. The animal was placed in the testing cage for 30 minutes. At the end of the period, after the animal was carefully removed, the number of marbles that were more than two-thirds covered with bedding material was counted.
All substances were injected intraperitoneally in a volume of 10 μl of solution per 1 gram of animal weight 30 minutes prior to behavioral testing.

NC(=O)CC[C@H](NC(=O)[C@@H](N)Cc1ccccc1)C(=O)N[C@@H](CO)C(=O)N[C@@H](CCC(=O)O)C(=O)O [FQSE] (H-FQSE-OH)
p-ERK 1 level in the hippocampus (p-ERK1 (Thr202)): normalized levels
result obtained in EPM (1 administration) ([1]; CUMS, FQSE 0.05 mg/kg): slight anxiolytic-like
time spent on the open arms ([1]; FQSE 0.05 mg/kg i.n., 1 injection, vs vehicle treatment): trend towards increment
increase in p-p70S6k levels in the cortex (p-p70S6k (Thr421/Ser424)): 80%
increase in p-p70S6k levels in the hippocampus (p-p70S6k (Thr421/Ser424)): 170 to 200%
anxiety-like behavior (BALB/C mice [2]; FQSE 20 mg/kg co-administered with bicuculline 5 mg/kg ip): did not reduce
open arm entries (BALB/C mice [2]; FQSE 20 mg/kg ip): 4±0.65
time spent on open arms (BALB/C mice [2]; FQSE 20 mg/kg ip 30 min before): 60.9 ± 13.31 s
p-ERK 2 level in the hippocampus (p-ERK 2 (Tyr204); both doses of FQSE, after stress-induced 100% increase): normalized levels
cortical levels of p-ERK 2 (Tyr204) (p-ERK 2 (Tyr204); fluoxetine 5 mg/kg, FQSE 0.3 mg/kg, against stress and control levels): decreased
p-GSK3β in the hippocampus (p-GSK3β (Ser9)): no response
LPS-induced TNFa expression (TNFa; FQSE 400 μM, 24 hours with LPS): efficiently suppresses
basal TNFa expression level in non-activated glial cells (TNFa; FQSE even on 0.04 μM): able to reduce
LPS-induced TNFa expression (TNFa; lower FQSE concentrations (0.04, 4, 40 μM)): statistically insignificant
decrease in BDNF levels in the cortex (BDNF): 20 to 40% and 20-40%
decrease in BDNF levels in the hippocampus (BDNF): 40%
LPS-induced expression of IL-1b (Il-1b): high efficiency regarding suppression
number of marbles buried (BALB/C mice [3]; Diazepam 0.75 mg/kg, FQSE 5 mg/kg, 30 minutes): 1.9±0.99
number of marbles buried (BALB/C mice [3]; FQSE 10 mg/kg): 2.6±0.877
number of marbles buried (BALB/C mice [3]; FQSE 20 mg/kg): 1.4±0.68
